These are yes or no findings as the source states them, for the method shown. In cells and extracts the contact can be indirect. Here binding means that the protein was enriched with, or labelled near, the bait; the list need not be complete. Tags and fused reporters may be left off the sequences shown.

Amino acid sequences for entries named in this document (tags omitted).
UniProt O22467: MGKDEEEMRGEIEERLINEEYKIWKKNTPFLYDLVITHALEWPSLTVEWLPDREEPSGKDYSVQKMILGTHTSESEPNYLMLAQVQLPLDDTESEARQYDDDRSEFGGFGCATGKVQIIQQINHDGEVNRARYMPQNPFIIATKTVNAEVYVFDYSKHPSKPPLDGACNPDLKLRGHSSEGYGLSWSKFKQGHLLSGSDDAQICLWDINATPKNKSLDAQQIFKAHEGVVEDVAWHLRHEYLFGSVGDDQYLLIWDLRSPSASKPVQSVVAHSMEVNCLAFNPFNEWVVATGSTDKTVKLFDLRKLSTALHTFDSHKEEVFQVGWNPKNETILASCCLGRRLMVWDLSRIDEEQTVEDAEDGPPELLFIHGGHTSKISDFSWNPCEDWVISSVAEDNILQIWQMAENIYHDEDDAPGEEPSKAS

In this assay the target is T1, GFP-CLF (CURLY LEAF fused to GFP) (Arabidopsis) (UniProt P93831).
T1 sequence: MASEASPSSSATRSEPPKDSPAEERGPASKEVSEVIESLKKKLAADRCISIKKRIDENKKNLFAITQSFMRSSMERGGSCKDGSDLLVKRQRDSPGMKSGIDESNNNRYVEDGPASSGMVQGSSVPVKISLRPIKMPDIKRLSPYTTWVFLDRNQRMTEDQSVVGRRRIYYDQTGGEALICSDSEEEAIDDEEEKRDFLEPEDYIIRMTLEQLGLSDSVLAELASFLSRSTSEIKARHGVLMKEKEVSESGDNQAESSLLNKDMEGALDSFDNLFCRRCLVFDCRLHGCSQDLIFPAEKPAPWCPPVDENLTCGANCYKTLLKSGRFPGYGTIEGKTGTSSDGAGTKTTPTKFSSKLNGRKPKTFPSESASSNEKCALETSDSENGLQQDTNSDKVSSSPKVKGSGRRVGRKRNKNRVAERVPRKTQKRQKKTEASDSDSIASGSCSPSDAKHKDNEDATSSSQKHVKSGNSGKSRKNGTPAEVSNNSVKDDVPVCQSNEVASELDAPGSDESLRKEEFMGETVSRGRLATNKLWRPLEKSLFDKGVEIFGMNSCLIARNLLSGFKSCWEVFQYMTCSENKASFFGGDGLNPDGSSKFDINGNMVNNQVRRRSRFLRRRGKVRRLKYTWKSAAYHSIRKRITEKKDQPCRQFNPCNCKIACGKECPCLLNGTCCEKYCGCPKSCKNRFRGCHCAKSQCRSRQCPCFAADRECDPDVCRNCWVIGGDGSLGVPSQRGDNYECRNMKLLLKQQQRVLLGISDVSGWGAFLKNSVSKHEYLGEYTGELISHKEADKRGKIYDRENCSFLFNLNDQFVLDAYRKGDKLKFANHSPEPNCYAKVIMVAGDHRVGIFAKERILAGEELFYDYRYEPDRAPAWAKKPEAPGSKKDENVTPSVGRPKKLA
The assay can be described thus: affinity purification with mass spectrometry; GFP-tagged bait immunoprecipitated from extracts of transgenic Arabidopsis plants (pALP1::ALP1-GFP, 35S::ALP1-GFP, 35S::GFP-CLF, 35S::GFP control); co-purifying proteins identified by mass spectrometry (IP-MS); three independent replicates.

As for MSI1 (from UniProt O22467 1-424), the binding result is reported as “binds”.

Source of the values: paper PMC4671723.
